In article PMC9616849 one finds binding data, which are given here for one substance.

The chains behind the UniProt entries cited, without tags or fusion partners.
UniProt P70658: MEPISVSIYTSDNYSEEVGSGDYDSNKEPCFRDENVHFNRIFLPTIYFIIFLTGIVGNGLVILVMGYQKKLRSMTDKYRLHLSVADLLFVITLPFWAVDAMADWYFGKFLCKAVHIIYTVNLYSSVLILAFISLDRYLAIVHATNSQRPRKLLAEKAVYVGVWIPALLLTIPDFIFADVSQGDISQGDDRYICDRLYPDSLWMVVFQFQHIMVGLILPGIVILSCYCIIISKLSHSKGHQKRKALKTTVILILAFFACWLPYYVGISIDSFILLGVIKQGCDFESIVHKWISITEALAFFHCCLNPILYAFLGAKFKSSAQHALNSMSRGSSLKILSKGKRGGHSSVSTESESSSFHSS

Results are given in words; binding and its absence hold for the method and conditions named. Binding seen in cells or lysates may run through a third protein. Some results given as binding are weak or reduced against the parent protein; the word gives no strength.

The target of the test is T1, Endogenous TBK1 (TANK-binding kinase 1) (mouse (endogenous in bEnd.3)) (UniProt Q9WUN2).
T1 sequence: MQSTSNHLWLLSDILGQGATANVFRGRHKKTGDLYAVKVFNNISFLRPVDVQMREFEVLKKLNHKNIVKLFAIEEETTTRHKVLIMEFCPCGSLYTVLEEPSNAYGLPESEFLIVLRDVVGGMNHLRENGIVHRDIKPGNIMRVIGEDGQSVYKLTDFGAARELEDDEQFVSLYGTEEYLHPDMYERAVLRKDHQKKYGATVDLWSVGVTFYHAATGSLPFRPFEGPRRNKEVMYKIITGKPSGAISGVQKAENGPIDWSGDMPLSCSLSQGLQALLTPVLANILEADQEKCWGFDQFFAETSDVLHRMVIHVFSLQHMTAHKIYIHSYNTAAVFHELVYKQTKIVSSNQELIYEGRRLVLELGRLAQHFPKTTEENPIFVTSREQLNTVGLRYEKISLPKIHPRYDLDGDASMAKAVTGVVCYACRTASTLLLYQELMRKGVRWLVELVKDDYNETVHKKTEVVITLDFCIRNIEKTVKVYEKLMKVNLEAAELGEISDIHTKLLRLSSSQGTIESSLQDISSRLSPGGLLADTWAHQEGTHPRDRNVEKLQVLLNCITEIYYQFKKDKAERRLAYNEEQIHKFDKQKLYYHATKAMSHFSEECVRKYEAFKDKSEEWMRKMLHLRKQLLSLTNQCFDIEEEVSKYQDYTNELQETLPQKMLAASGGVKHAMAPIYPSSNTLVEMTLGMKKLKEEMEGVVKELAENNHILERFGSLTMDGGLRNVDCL
In words: co-IP; endogenous proteins in bEnd.3 cells; RIPA lysate, primary antibody overnight at 4 °C, protein A/G agarose 4 h at 4 °C, RIPA wash, western blot.

With “Endogenous CXCR4 (C-X-C chemokine receptor 4) (from UniProt P70658 1-359)”, the binding entry is on record as “binds”.
